These are yes or no findings as the source states them, for the method shown. Binding seen in cells or lysates may run through a third protein. Here binding means that the protein was enriched with, or labelled near, the bait; the list need not be complete.
Target: TRIAD3A fused to an engineered biotin ligase (TurboID) (AAV-CAMKII-TRIAD3A-V5-TurboID) (UniProt Q9NWF9)
Assay: proximity labelling

Amino acid sequences for entries named in this document (tags omitted). A change or cut given only in a name is not applied to a line headed by its entry.
UniProt Q9NWF9, whole entry, stated change not applied: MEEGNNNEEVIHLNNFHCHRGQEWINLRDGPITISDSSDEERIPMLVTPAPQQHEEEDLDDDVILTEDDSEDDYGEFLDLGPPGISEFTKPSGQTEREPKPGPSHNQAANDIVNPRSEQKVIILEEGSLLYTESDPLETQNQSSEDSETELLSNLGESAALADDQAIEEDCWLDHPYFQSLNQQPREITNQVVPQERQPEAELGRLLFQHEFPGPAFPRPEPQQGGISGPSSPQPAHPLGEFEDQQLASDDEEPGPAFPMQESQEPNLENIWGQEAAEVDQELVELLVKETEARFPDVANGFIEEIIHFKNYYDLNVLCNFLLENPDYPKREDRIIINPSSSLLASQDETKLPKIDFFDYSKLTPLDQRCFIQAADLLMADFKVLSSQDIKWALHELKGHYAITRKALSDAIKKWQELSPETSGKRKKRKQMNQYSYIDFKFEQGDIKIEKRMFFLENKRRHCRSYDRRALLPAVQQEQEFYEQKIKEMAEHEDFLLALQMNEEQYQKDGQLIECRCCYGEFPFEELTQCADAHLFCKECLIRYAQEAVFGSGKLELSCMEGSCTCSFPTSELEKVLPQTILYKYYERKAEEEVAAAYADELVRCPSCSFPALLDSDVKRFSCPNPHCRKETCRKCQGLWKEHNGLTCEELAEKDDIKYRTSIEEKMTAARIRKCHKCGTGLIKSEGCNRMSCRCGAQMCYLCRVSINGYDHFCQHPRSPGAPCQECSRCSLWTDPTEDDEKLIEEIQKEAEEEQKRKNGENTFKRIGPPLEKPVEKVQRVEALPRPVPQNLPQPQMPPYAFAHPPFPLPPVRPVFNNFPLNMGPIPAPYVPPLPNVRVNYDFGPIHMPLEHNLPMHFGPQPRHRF

“TARDBP/TDP-43 (from UniProt Q921F2 1-414)” was tested, and the binding was “binds”.
With “tau (mouse brain, biotinylated by TRIAD3A-TurboID) (from UniProt P10637-2)” the binding was “binds”.
